Results deposited as PubChem BioAssay AID1259405 (NCATS, 2018).
The whole screen tested about 50,000 reagents; below is an unselected part. Of all reagents, about 4,000 (8%) are marked active. 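Mouse siRNA library applied to hamster cells; one well for each siRNA.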 Reagents against one gene are numbered here. Reagent sequences are not shown.

Screen: 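Knock-downs that lift recombinant protein yield in hamster ovary cells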 (primary screen)
Cell system: Chinese hamster CHO-K1 ovary cells with stable secreted eGFP expression
Reagents: single siRNA against mouse genes, 0.8 pmol siRNA per well (2 µl of 400 nM stock)
Timing: 3 days
Detection: 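Percent of the per-plate non-targeting control median for intracellular GFP per well by laser scanning cytometry and for cell viability by ATP luminescence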
Direction: GFP, % of control: higher = more GFP per well, higher productivity; viability (ATP), % of control: higher = more viable cells (more ATP)
Call rule: 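Called active when intracellular GFP, relative to negative control, is at or above 120%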

no.	gene symbol	reagent	GFP, % of control	viability (ATP), % of control	activity call
1	Vmn1r181 (vomeronasal 1 receptor 181)	1	58.7	42.8	inactive
2	Vmn1r181 (vomeronasal 1 receptor 181)	2	73.2	55.1	inactive
3	Vmn1r181 (vomeronasal 1 receptor 181)	3	93.4	72.2	inactive
4	4932414J04Rik (RIKEN cDNA 4932414J04 gene)	1	88.1	60.2	inactive
5	4932414J04Rik (RIKEN cDNA 4932414J04 gene)	2	96.8	105	inactive
6	4932414J04Rik (RIKEN cDNA 4932414J04 gene)	3	111	73.1	inactive
7	Sac3d1 (SAC3 domain containing 1)	1	95.8	49.9	inactive
8	Sac3d1 (SAC3 domain containing 1)	2	164	97.3	active
9	Sac3d1 (SAC3 domain containing 1)	3	104	67.7	inactive
10	Sac3d1 (SAC3 domain containing 1)	4	225	114	active
11	Sac3d1 (SAC3 domain containing 1)	5	81.4	85	inactive
12	Sac3d1 (SAC3 domain containing 1)	6	82	101	inactive
13	Or2ad1 (olfactory receptor family 2 subfamily AD member 1)	1	58.1	74.2	inactive
14	Or2ad1 (olfactory receptor family 2 subfamily AD member 1)	2	59	65.3	inactive
15	Or2ad1 (olfactory receptor family 2 subfamily AD member 1)	3	43.8	76	inactive
16	Cdkl2 (cyclin dependent kinase like 2)	1	52.8	71.6	inactive
17	Sox7 (SRY (sex determining region Y)-box 7)	1	87.9	98.5	inactive
18	Sox7 (SRY (sex determining region Y)-box 7)	2	73.3	51.5	inactive
19	Sox7 (SRY (sex determining region Y)-box 7)	3	67.1	103	inactive
20	Gm11541 (predicted gene 11541)	1	41.5	72.5	inactive
21	Gm11541 (predicted gene 11541)	2	29.8	28	inactive
22	Gm11541 (predicted gene 11541)	3	92.2	84.6	inactive
23	Galnt13 (polypeptide N-acetylgalactosaminyltransferase 13)	1	150	122	active
24	Galnt13 (polypeptide N-acetylgalactosaminyltransferase 13)	2	144	148	active
25	Galnt13 (polypeptide N-acetylgalactosaminyltransferase 13)	3	83.8	111	inactive
26	Pced1a (PC-esterase domain containing 1A)	1	79.3	65.1	inactive
27	Pced1a (PC-esterase domain containing 1A)	2	72.4	68.1	inactive
28	Pced1a (PC-esterase domain containing 1A)	3	81.8	96.7	inactive
29	Plekhh1 (pleckstrin homology, MyTH4 and FERM domain containing H1)	1	78.7	104	inactive
30	Plekhh1 (pleckstrin homology, MyTH4 and FERM domain containing H1)	2	128	74.7	active
31	Plekhh1 (pleckstrin homology, MyTH4 and FERM domain containing H1)	3	67.3	90.5	inactive
32	Prl3d1 (prolactin family 3, subfamily d, member 1)	1	60.3	67.2	inactive
33	Prl3d1 (prolactin family 3, subfamily d, member 1)	2	84.5	83.4	inactive
34	Prl3d1 (prolactin family 3, subfamily d, member 1)	3	94.2	73.5	inactive
35	Or12e7 (olfactory receptor family 12 subfamily E member 7)	1	151	75.9	active
36	Or12e7 (olfactory receptor family 12 subfamily E member 7)	2	92.6	76.4	inactive
37	Or12e7 (olfactory receptor family 12 subfamily E member 7)	3	89.5	73.1	inactive
38	Lce1a1 (late cornified envelope 1A1)	1	61.3	62	inactive
39	Lce1a1 (late cornified envelope 1A1)	2	126	114	active
40	Lce1a1 (late cornified envelope 1A1)	3	94.7	99.6	inactive
41	Olig2 (oligodendrocyte transcription factor 2)	1	101	121	inactive
42	Olig2 (oligodendrocyte transcription factor 2)	2	109	105	inactive
43	Olig2 (oligodendrocyte transcription factor 2)	3	77.4	108	inactive
44	Mtnap1 (mitochondrial nucleoid associated protein 1)	1	82.8	84.4	inactive
45	Mtnap1 (mitochondrial nucleoid associated protein 1)	2	102	69.4	inactive
46	Mtnap1 (mitochondrial nucleoid associated protein 1)	3	92	98.1	inactive
47	Arpin (actin-related protein 2/3 complex inhibitor)	1	63	93.1	inactive
48	Arpin (actin-related protein 2/3 complex inhibitor)	2	170	125	active
49	Arpin (actin-related protein 2/3 complex inhibitor)	3	83.1	78.2	inactive
50	Plxna2 (plexin A2)	1	46.9	66.4	inactive
51	Ing3 (inhibitor of growth family, member 3)	1	74.7	79.2	inactive
52	Ing3 (inhibitor of growth family, member 3)	2	80	79.2	inactive

9 consecutive reagents from above, for reference:
no.	gene symbol	reagent	GFP, % of control	viability (ATP), % of control	activity call
37	Or12e7 (olfactory receptor family 12 subfamily E member 7)	3	89.5	73.1	inactive
38	Lce1a1 (late cornified envelope 1A1)	1	61.3	62	inactive
39	Lce1a1 (late cornified envelope 1A1)	2	126	114	active
40	Lce1a1 (late cornified envelope 1A1)	3	94.7	99.6	inactive
41	Olig2 (oligodendrocyte transcription factor 2)	1	101	121	inactive
42	Olig2 (oligodendrocyte transcription factor 2)	2	109	105	inactive
43	Olig2 (oligodendrocyte transcription factor 2)	3	77.4	108	inactive
44	Mtnap1 (mitochondrial nucleoid associated protein 1)	1	82.8	84.4	inactive
45	Mtnap1 (mitochondrial nucleoid associated protein 1)	2	102	69.4	inactive

Additional records:
no.	gene symbol	reagent	GFP, % of control	viability (ATP), % of control	activity call
53	Rps6kb2 (ribosomal protein S6 kinase B2)	1	97.1	57.6	inactive
54	Rps6kb2 (ribosomal protein S6 kinase B2)	2	103	74.4	inactive
55	Rps6kb2 (ribosomal protein S6 kinase B2)	3	109	72.9	inactive
56	Cacng6 (calcium channel, voltage-dependent, gamma subunit 6)	1	78.3	72.5	inactive
57	Cacng6 (calcium channel, voltage-dependent, gamma subunit 6)	2	71.2	63.2	inactive
58	Cacng6 (calcium channel, voltage-dependent, gamma subunit 6)	3	184	133	active
59	Myl10 (myosin, light chain 10, regulatory)	1	73.7	77	inactive
60	Myl10 (myosin, light chain 10, regulatory)	2	67.8	73.9	inactive
61	Myl10 (myosin, light chain 10, regulatory)	3	77.4	70.9	inactive
62	Otud7a (OTU domain containing 7A)	1	0	19.2	inactive
63	Otud7a (OTU domain containing 7A)	2	79.8	94.2	inactive
64	Itga2b (integrin alpha 2b)	1	130	76.3	active
65	Itga2b (integrin alpha 2b)	2	126	89	active
66	Or2a54 (olfactory receptor family 2 subfamily A member 54)	1	64.5	60.6	inactive
67	Or2a54 (olfactory receptor family 2 subfamily A member 54)	2	71.9	89.1	inactive
68	Or2a54 (olfactory receptor family 2 subfamily A member 54)	3	26.9	69.4	inactive
69	Atp8b3 (ATPase, class I, type 8B, member 3)	1	121	109	active
70	Atp8b3 (ATPase, class I, type 8B, member 3)	2	67.5	99.6	inactive
71	Atp8b3 (ATPase, class I, type 8B, member 3)	3	91	80.5	inactive
72	Zfp207 (zinc finger protein 207)	1	69.6	48.3	inactive
73	Zfp207 (zinc finger protein 207)	2	168	72.6	active
74	Zfp207 (zinc finger protein 207)	3	108	106	inactive
75	Emilin2 (elastin microfibril interfacer 2)	1	86	114	inactive
76	Emilin2 (elastin microfibril interfacer 2)	2	62.8	86.4	inactive
77	Slc22a22	1	48.3	54	inactive
78	Slc22a22	2	60.6	68.4	inactive
79	Slc22a22	3	69.9	70.4	inactive
80	Brms1l (breast cancer metastasis-suppressor 1-like)	1	88.8	98.5	inactive
81	Brms1l (breast cancer metastasis-suppressor 1-like)	2	92.6	90.1	inactive
82	Brms1l (breast cancer metastasis-suppressor 1-like)	3	103	103	inactive
83	Or4c10b (olfactory receptor family 4 subfamily C member 10B)	1	46.9	33.8	inactive
84	Or4c10b (olfactory receptor family 4 subfamily C member 10B)	2	103	88.1	inactive
85	Or4c10b (olfactory receptor family 4 subfamily C member 10B)	3	56	142	inactive
86	Rimkla (ribosomal modification protein rimK-like family member A)	1	62.5	73.5	inactive
87	Rimkla (ribosomal modification protein rimK-like family member A)	2	85.2	98.5	inactive
88	Rimkla (ribosomal modification protein rimK-like family member A)	3	75.6	105	inactive
89	Sec11c (SEC11 homolog C, signal peptidase complex subunit)	1	78.3	85.3	inactive
90	Sec11c (SEC11 homolog C, signal peptidase complex subunit)	2	58.2	76.4	inactive
91	Sec11c (SEC11 homolog C, signal peptidase complex subunit)	3	92	80.9	inactive
92	Coro1c (coronin, actin binding protein 1C)	1	72.8	64.2	inactive
93	Coro1c (coronin, actin binding protein 1C)	2	78.3	75.3	inactive
94	Coro1c (coronin, actin binding protein 1C)	3	78.5	58.8	inactive
95	Ift20 (intraflagellar transport 20)	1	84.9	88.4	inactive
96	Ift20 (intraflagellar transport 20)	2	79.6	67.3	inactive
97	Ift20 (intraflagellar transport 20)	3	13.1	11.8	inactive
98	Ttc4 (tetratricopeptide repeat domain 4)	1	39.4	49.6	inactive
99	Ttc4 (tetratricopeptide repeat domain 4)	2	75	46.7	inactive
100	Ttc4 (tetratricopeptide repeat domain 4)	3	100	68.4	inactive
101	Man1a2 (mannosidase, alpha, class 1A, member 2)	1	83.1	113	inactive
102	Man1a2 (mannosidase, alpha, class 1A, member 2)	2	103	109	inactive
103	Man1a2 (mannosidase, alpha, class 1A, member 2)	3	54.7	75.2	inactive
104	Erlec1 (endoplasmic reticulum lectin 1)	1	124	91.9	active
105	Erlec1 (endoplasmic reticulum lectin 1)	2	61.1	87.8	inactive
106	Erlec1 (endoplasmic reticulum lectin 1)	3	105	104	inactive
107	Mavs (mitochondrial antiviral signaling protein)	1	118	87.1	inactive
108	Mavs (mitochondrial antiviral signaling protein)	2	84.2	56.9	inactive
109	Mavs (mitochondrial antiviral signaling protein)	3	112	90.4	inactive
